This is an account of results in PubChem BioAssay AID493014 (National Center for Advancing Translational Sciences (NCATS), 2011).

This assay can be described thus: qHTS Assay to Find Inhibitors of Chronic Active B-Cell Receptor Signaling. The conditions noted are these: ABC-DLBCL IkBa-CBG/CBR reporter, luminescence ratio (green luciferase fused to IkBa over red control in TMD8 lymphoma cells), 4 h. The procedure, abridged: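 Compounds up to 46 uM were incubated four hours with TMD8 cells whose green CBG68 luciferase is fused to IkappaBalpha; red CBR luminescence normalised the signal, and concentration-effect curves were fitted to fusion, red and ratio data.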

Where [1] appears, read: measured here: CBR red luminescence, cell number.
Where [2] appears, read: measured here: IkBa-CBG green luminescence.

Where “and” joins values, the source holds several entries; their conditions need not be identical. Identical values can stand only once. The list shows a part of the results. Shown are side measurements of this screen, not its main read-out; they come without a call. Most of these compounds were active or inconclusive in the main read-out, so they are no random draw. Words in brackets tell the shape of the fitted curve; partial curves, single points and poor fits give uncertain potencies.

The term AC50 denotes the concentration giving half of the maximal activity seen. With `NC(=O)C1CCN(c2ncnc3c(-c4ccccc4)nsc23)CC1`, the AC50 under setting [1] is 4.11 µM [rising, single point].
Still for that read-out and setting: in the case of `O=Cc1sc(Nc2ccccc2)nc1Cl` it was 11.2 µM [falling, partial curve, poor fit].
The same measure, in the same setting: in the case of `Cc1nn(-c2ccccc2)c(C)c1C(=O)OCC(=O)N(C)c1ccccc1` it was 7.31 µM [falling, partial curve, poor fit]; in that of `COc1ccc(NC(=O)Nc2ccccc2OC)cc1`, 4.61 µM [falling, partial curve].
Same read-out and setting: in the case of `CCOc1cccc(-c2c(C(=O)N/N=C/c3c(F)cccc3Cl)nnn2-c2nonc2N)c1` it was 35.5 µM [falling, single point].
Take `COc1ccc(Cn2c3nc4ccccc4nc3c3c(=O)n(Cc4ccco4)cnc32)cc1`: the AC50 was 2.06 µM [falling, full curve, poor fit] under setting [1] and 2.06 µM [rising, full curve, poor fit] under setting [2].
With `O=C(Oc1cccccc1=O)c1ccccc1`, the AC50 under setting [1] is 31.6 µM [falling, single point].
On to `Cc1cc(C)c(C(=O)Nc2ccc(Br)c(C(F)(F)F)c2)c(C)c1`, for which the AC50 under setting [1] was 29.1 µM [falling, single point].
Same read-out and setting: in the case of `CCCCNc1nc(N)nc(-c2cc(Cl)ccc2O)n1` it was 20.6 µM [falling, partial curve, poor fit]; in that of `Cn1c(SCC(=O)Nc2cccc(Br)c2)nnc1-c1cc2ccccc2o1`, 0.259 µM [falling, full curve, poor fit].
On the same count and under the same terms, in the case of `CCOC(=O)c1cc(-c2ccccc2)n(CC(=O)Nc2ccccc2OCC)c1C` it was 0.501 µM [rising, full curve, poor fit]; in that of `Cc1nc(NC(=O)COC(=O)C2CC2C)c(Cl)cc1Cl` (centres undefined), 18.4 µM [rising, single point].
Consider `CCOC(=O)c1cnc(-n2nc(C)cc2C)nc1NC`, for which the half-maximal activity concentration (AC50) was 11.2 µM [rising, single point] under setting [1] and 35.5 µM [falling, single point] under setting [2].
As to `O=c1[nH]c2ccccc2s1`, the concentration at half-maximal activity (AC50) under setting [1] was 16.4 µM [rising, partial curve].
Same read-out and setting: in the case of `COc1cc(/C=N/NS(=O)(=O)c2ccc3ccccc3c2)ccc1OCc1ccc(C(=O)O)cc1` it was 2.51 µM [falling, full curve, poor fit].
With `C/C(=N\NC(=S)NC(C)C)c1ccccc1OC(F)F`, the AC50 under setting [2] is 35.5 µM [falling, single point].
As for `Cc1ccc(NC(=O)C(NCc2ccccn2)c2ccccc2)cc1` (centres undefined), under setting [1], the AC50 was 35.5 µM [falling, single point].
On the same count and under the same terms, in the case of `C=CCN(CC=C)S(=O)(=O)c1ccc(C(=O)Nc2nc3c(s2)CCc2ccccc2-3)cc1` it was 18.4 µM [falling, partial curve]; in that of `COc1ccc([C@H]2CC(=O)C=C(c3ccc(O)cc3)C2)cc1OC`, 9.2 µM [falling, partial curve, poor fit].
On the same count and under the same terms, in the case of `COc1ccc(CNC(=O)Cc2cn(C)c3ccccc23)c(OC)c1` it was 12.6 µM [falling, single point].
The same measure, in the same setting: in the case of `O=C(CN1CCCN(Cc2ccc(F)cc2)S1(=O)=O)NC1CCCC1` it was 6.31 µM [rising, partial curve, poor fit].
`COCCNC(=S)N1CCN(C(=O)C(=O)Nc2ccc(C(=O)OC)cc2)CC1`: the AC50 under setting [1] was 20.6 µM [falling, single point].
Still for that read-out and setting: in the case of `Cn1ccnc1SCC(=O)Nc1ccc(Br)cc1C(F)(F)F` it was 20 µM [rising, single point].
`Cc1ccc2nc(SCC(=O)N3CCCC3)[nH]c2c1`: the AC50 under setting [1] was 35.5 µM [falling, single point].
On to `CC(C)NC(=S)N/N=C/c1c[nH]c2ccccc12`, for which, under setting [2], the AC50 is 29.1 µM [falling, single point].
Turning to `CC(=O)Nc1nnc(SCc2ccccc2F)s1`, the AC50 under setting [1] was 9.2 µM [rising, partial curve].
For the compound `COc1ccc(OC)c(C2C3=C(COC3=O)Nc3cc4c(cc32)OCO4)c1` (centres undefined), the AC50 reads like this: under setting [1], 0.631 µM [rising, full curve, poor fit]; under setting [2], 0.891 µM [falling, full curve].
In the case of `O=[N+]([O-])c1ccc2c(c1)C(O)n1nc(-c3ccccc3)nc1S2` (centres undefined), the AC50 under setting [1] was 0.891 µM [rising, full curve, poor fit].
Same read-out and setting: in the case of `CC(C)COc1ccc(-c2nn(-c3ccccc3)cc2CO)cc1` it was 7.94 µM [rising, partial curve]; in that of `COc1ccc(C(=O)C2CCCN(C(=O)c3cc(C)on3)C2)cc1F` (centres undefined), 0.447 µM [rising, full curve, poor fit].
On the same count and under the same terms, in the case of `CC(=O)Oc1ccc2nc(-c3ccco3)oc(=O)c2c1` it was 4.47 µM [falling, partial curve]; in that of `COc1cccc(NC(=O)Nc2ccc3c(c2)CCC3)c1`, 17.8 µM [falling, partial curve, poor fit].
With `COc1ccc(CCC(=O)N2CC(C)OC(C)C2)cc1` (centres undefined), the AC50 under setting [1] is 8.2 µM [rising, partial curve, poor fit].
Same read-out and setting: in the case of `Cc1nn(-c2ccccc2)c(Cl)c1/C=N/NC(=O)c1ccccc1NS(=O)(=O)c1cccs1` it was 6.51 µM [rising, single point]; in that of `CC(C)c1ccc2c(c1)c(SC(C)(C)C)c(CC(C)(C)C(=O)O)n2Cc1ccc(Cl)cc1`, 5.62 µM [rising, single point] and 4.11 µM [rising, partial curve, poor fit].
The same measure, in the same setting: in the case of `CCCOC(=O)c1ccc(NC(=O)c2c(Cl)ccc(Cl)c2OC)cc1` it was 29.1 µM [falling, single point].
With `COc1ccc(/C=C/C(=O)NCCCc2ccccc2)cc1`, under setting [1], the AC50 was 32.6 µM [falling, partial curve, poor fit].
Still for that read-out and setting: in the case of `CCOc1ccc2nc(N/C(N)=N/C(=S)Nc3cccc(OC)c3)nc(C)c2c1` it was 20 µM [rising, partial curve, poor fit].
The same measure, in the same setting: in the case of `Fc1ccc(NC(=S)N2CCCC(c3ccccc3)=N2)cc1` it was 10 µM [falling, partial curve, poor fit].
For `Brc1ccc(-c2cn3c(n2)CCc2ccc4cccnc4c2-3)cc1`, the AC50 is 8.91 µM [falling, partial curve, poor fit] under setting [1] and 35.5 µM [falling, single point] under setting [2].
In the case of `Cc1nn(C)c(C)c1/C=N/N=C1\CCC2C3CCc4cc(O)ccc4C3CCC12C` (centres undefined), the AC50 under setting [1] was 29.1 µM [rising, single point].
Still for that read-out and setting: in the case of `Cc1ccc(C)n1-n1c(C)nc2sc(-c3ccccc3)cc2c1=O` it was 0.461 µM [rising, partial curve, poor fit].
Still for that read-out and setting: in the case of `CC(C)NCC(=O)C12CC3CC(CC(C3)C1)C2` it was 0.631 µM [rising, full curve, poor fit]; in that of `COC(=O)c1ccc(COC(=O)CNC(=O)c2ccc(-c3ccccc3)cc2)cc1`, 14.6 µM [falling, partial curve]; in that of `CCOC(=O)C1CCCCN1Cc1cc(Cl)ccc1O` (centres undefined), 29.1 µM [rising, single point].
The same measure, in the same setting: in the case of `Cn1c(=O)[nH]c(=O)c2c1nc(NCCCO)n2CCOc1ccccc1` it was 31.6 µM [rising, single point]; in that of `O=C(CCN1C(=O)/C(=C/c2ccccc2Cl)SC1=S)NN1CCOCC1`, 3.55 µM [rising, single point]; in that of `COc1ccccc1OCC(=O)Nc1ccc(-c2nnc(-c3ccco3)o2)cc1`, 12.6 µM [rising, single point].
Regarding `Nc1c2c(nc3cccc(Cl)c13)N(c1ccccc1)CC2`, under setting [1], the AC50 was 35.5 µM [rising, single point].
The same measure, in the same setting: in the case of `Cc1ccc(-c2nc(NC(=O)c3nn(C)cc3[N+](=O)[O-])sc2C)cc1` it was 4.11 µM [falling, full curve, poor fit]; in that of `CC(C)(C)OC(=O)C[C@H]1C/C=C\C[C@@H](CC(=O)N[C@H](CO)Cc2ccccc2)C(=O)N2CCC[C@H]2COC1=O`, 18.4 µM [rising, single point].
Take `Cc1ccc2cc(C)c(SCC(=O)NCc3ccco3)nc2c1`: under setting [1], the AC50 was 11.2 µM [falling, partial curve].
Turning to `CC(/C=C/c1ccccc1)=N\Nc1nc(-c2ccccc2)cs1`, the half-maximal activity concentration (AC50) under setting [1] is 0.116 µM [rising, full curve, poor fit].
Still for that read-out and setting: in the case of `CCOC(=O)c1cc(S(=O)(=O)N2CCc3ccccc32)cn1C` it was 6.31 µM [rising, single point]; in that of `O=C(/C=C/c1cccs1)Nc1cccnc1`, 18.4 µM [falling, single point].
Regarding `CN1CCCCC1CCN1c2ccccc2Sc2ccc(S(C)=O)cc21` (centres undefined), under setting [1], the AC50 is 6.51 µM [falling, partial curve, poor fit].
On the same count and under the same terms, in the case of `Cc1cccc(C(=O)NC(NCCc2ccccc2)C(Cl)(Cl)Cl)c1` (centres undefined) it was 2.82 µM [falling, partial curve, poor fit].
As for `C=CCn1c(SCC(=O)Nc2nc(C)cs2)nnc1C(NC(=O)c1ccccc1)C(C)C` (centres undefined), the AC50 by setting is: under setting [1], 13 µM [falling, partial curve, poor fit]; under setting [2], 9.2 µM [rising, partial curve, poor fit].
For `O=C(Cc1ccc(Cl)cc1Cl)OCC(=O)N1CCCCC1`, under setting [1], the AC50 was 1.58 µM [rising, partial curve, poor fit].
Regarding `CC(C)CCNC(=O)c1ccc(CSCc2cccc(F)c2)o1`, the AC50 under setting [1] is 13 µM [rising, partial curve, poor fit].
As to `CCOC(=O)C1=C(SCC)c2cc3c(n2C1=O)CCCC3`, the AC50 was 8.2 µM [falling, partial curve, poor fit] under setting [1] and 9.2 µM [rising, partial curve, poor fit] under setting [2].
Consider `O=C(NNC(=S)Nc1cccc(Cl)c1)c1ccccc1OC(F)F`, for which, under setting [1], the AC50 is 20.6 µM [falling, single point].
The same measure, in the same setting: in the case of `COC(=O)CN1C(=O)N/C(=C/c2cc(OC)c(OC)cc2C)C1=O` it was 10 µM [falling, single point].
